Data source: PubChem BioAssay AID602196 (INSERM, 2012)

Purpose: 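Modifiers of cisplatin sensitivity in A549 cells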
System: human A549 lung cancer cells
Reagents: siRNA pair against human genes
Duration: 48 h transfection before cisplatin; time from cisplatin to read-out not stated
Treatment: cisplatin at a dose killing half of control-siRNA cells; exact dose and duration not given
Measured: 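Cisplatin cell death as a shift from the 50% death seen with control siRNA; siRNAs toxic or growth-blocking alone scored 0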
Direction: two-siRNA summed score (-2 to +2): higher = both siRNAs protect from cisplatin killing; -2 means both sensitise; mean protection from cisplatin (shift in death) and protection from cisplatin (shift in death), siRNA C: higher = protection from cisplatin killing
Rule for the call: 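Each siRNA scores 0 if harmful alone by LDH or WST-1, otherwise +1 if it reduces and -1 if it increases cisplatin killing; a gene is active when both siRNAs agree (sum +2 or -2)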
Meaning of the calls: active = both siRNAs shift cisplatin killing the same way; inactive = no consistent shift, or siRNA harmful alone
This is one part, drawn at random, of about 23,000 deposited reagents. 455 of all reagents (2%) count as active. 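Active includes both protection and sensitisation; some change values fall well beyond the stated -50 to +50 range.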 Unmarked entries are inactive. Not all columns of the deposit are shown. Not given: the amount of reagent.

| Target gene | two-siRNA summed score (-2 to +2) | mean protection from cisplatin (shift in death) (%) | protection from cisplatin (shift in death), siRNA C (%) |
| --- | --- | --- | --- |
| NIT2 (nitrilase family member 2) | 1 | 16.1 | 38.2 |
| JAK3 (Janus kinase 3) | 1 | 11.3 | 19.4 |
| LOC440794 | 0 | 6.5 | 2.3 |
| CDX2 (caudal type homeobox 2) | 0 | 2.8 | -0.1 |
| TNFRSF10D (TNF receptor superfamily member 10d) | -1 | -3.6 | 10 |
| PTPN12 (protein tyrosine phosphatase non-receptor type 12) | 0 | -0.8 | -3.1 |
| LOC388022 (retired record) | 0 | -0.7 | -1.6 |
| TTC32 (tetratricopeptide repeat domain 32) | 0 | -3.5 | 2.3 |
| HOMER2 (homer scaffold protein 2) | 0 | -1.7 | -7.1 |
| GNG3 (G protein subunit gamma 3) | 0 | 10 | 24.7 |
| MDN1 (midasin AAA ATPase 1) | 0 | -1.9 | 5.8 |
| LHFPL4 (LHFPL tetraspan subfamily member 4) | 0 | 6.9 | -0.2 |
| H3C7 (H3 clustered histone 7) | 1 | 21.9 | 32.1 |
| LOC391059 | 0 | 7 | 6 |
| TCP11 (t-complex 11) | 0 | 9.3 | 0.4 |
| PTPRA (protein tyrosine phosphatase receptor type A) | 0 | 4.9 | -2.3 |
| NDRG2 (NDRG family member 2) | 0 | 10.2 | 9.1 |
| MAGIX (MAGI family member, X-linked) | 0 | -5.9 | -8.4 |
| CA11 (carbonic anhydrase 11 (inactive)) | 0 | -2.3 | -0.3 |
| SIX5 (SIX homeobox 5) | 0 | 2 | 7 |
| ACVR2A (activin A receptor type 2A) | 0 | -2.6 | -6.6 |
| PXYLP1 (2-phosphoxylose phosphatase 1) | 0 | 7.9 | 6.2 |
| HLA-DMA (major histocompatibility complex, class II, DM alpha) | -1 | -7.5 | -8.2 |
| MESD (mesoderm development LRP chaperone) | 0 | 1.2 | -5.4 |
| CYP3A43 (cytochrome P450 family 3 subfamily A member 43) | 0 | 19.6 | 13.5 |
| TUSC8 (tumor suppressor candidate 8) | 0 | 8.7 | 13.4 |
| MIS12 (MIS12 kinetochore complex component) | 0 | 9.6 | 4.2 |
| BDP1 (BDP1 general transcription factor IIIB subunit) | 0 | 3.5 | 3.6 |
| CYSLTR1 (cysteinyl leukotriene receptor 1) | 0 | 3.7 | 1.3 |
| FAM24B (family with sequence similarity 24 member B) | 0 | 0 | -2.3 |
| BOLA1 (bolA family member 1) | 0 | 5.1 | 1.5 |
| LOC127003 | 0 | 22.9 | 26.4 |
| PEBP1 (phosphatidylethanolamine binding protein 1) | 1 | 11.9 | 23.9 |
| CDH9 (cadherin 9) | 0 | 2.7 | -2.6 |
| TPM3 (tropomyosin 3) | 2 (active) | 25.3 | 14.9 |
| LOC388514 | 0 | -5.4 | 3.7 |
| PPP1R35 (protein phosphatase 1 regulatory subunit 35) | 0 | 4.3 | 11.3 |
| LOC441446 | 0 | 10.6 | 3.8 |
| CYP39A1 (cytochrome P450 family 39 subfamily A member 1) | -1 | -28.1 | -41.5 |
| SLC44A4 | 0 | 16.6 | -1.8 |
| UBLCP1 (ubiquitin like domain containing CTD phosphatase 1) | 0 | 8.9 | 12.6 |
| FLYWCH2 (FLYWCH family member 2) | 0 | -3.9 | -15.9 |
| LOC283871 | 1 | 11.8 | 17.2 |
| GPR19 (G protein-coupled receptor 19) | 0 | -1.4 | 8.6 |
| FAM171A1 (family with sequence similarity 171 member A1) | 0 | -0.6 | -14.7 |
| MAGI3 | -1 | -5 | 1.8 |
| ARL4AP1 (ARF like GTPase 4A pseudogene 1) | 2 (active) | 16.3 | 21.3 |
| LSM5 | 0 | -2.9 | -6.7 |
| MIR9-1HG (MIR9-1 host gene) | 1 | 8.2 | 12.3 |
| RACGAP1P1 (Rac GTPase activating protein 1 pseudogene 1) | 0 | 20 | 26.8 |
| TTLL4 (tubulin tyrosine ligase like 4) | 2 (active) | 14.3 | 12.8 |
| LOC402098 | 1 | 3.9 | 16 |
| LOC150207 | 0 | -1.2 | 1.7 |
| SPEM2 (SPEM family member 2) | 2 (active) | 18.6 | 22.8 |
| LOC389562 | 1 | 5.8 | -2.5 |
| LOC389185 | 0 | 24.4 | 33.4 |
| CNGA1 (cyclic nucleotide gated channel subunit alpha 1) | 0 | -0.4 | -3 |
| UGGT2 (UDP-glucose glycoprotein glucosyltransferase 2) | -1 | -5.7 | 9.1 |
| LOC442606 | 2 (active) | 14.9 | 13.8 |
| DIO2 (iodothyronine deiodinase 2) | 0 | 6.8 | 10 |
| TRMT112 (tRNA methyltransferase activator subunit 11-2) | 0 | 11.1 | 14.5 |
| P2RY13 (purinergic receptor P2Y13) | 0 | 1.1 | 4.3 |
| CSN1S2AP (casein alpha s2 like A, pseudogene) | 0 | 6.8 | 17 |
| COX14 (cytochrome c oxidase assembly factor COX14) | 0 | 3.8 | -0.5 |
| KRT31 (keratin 31) | 0 | 4.4 | 6.2 |
| LOC390823 | 0 | -0.8 | -2.2 |
| LOC440617 | 1 | 14.9 | 10.2 |
| ATF4 (activating transcription factor 4) | 1 | 33.8 | 57 |
| ABCB5 (ATP binding cassette subfamily B member 5) | -1 | -5.6 | -8.2 |
| BTC (betacellulin) | -1 | -8.4 | 8.4 |
| RNF148 (ring finger protein 148) | 0 | 3.5 | 4.9 |
| NDUFB2 (NADH:ubiquinone oxidoreductase subunit B2) | 0 | 1.4 | 4.9 |
| MYO5C (myosin VC) | 1 | 6.2 | 14.1 |

11 of these entries, set out differently.
Target gene	two-siRNA summed score (-2 to +2)	mean protection from cisplatin (shift in death) (%)	protection from cisplatin (shift in death), siRNA C (%)
HLA-DMA (major histocompatibility complex, class II, DM alpha)	-1	-7.5	-8.2
MESD (mesoderm development LRP chaperone)	0	1.2	-5.4
CYP3A43 (cytochrome P450 family 3 subfamily A member 43)	0	19.6	13.5
TUSC8 (tumor suppressor candidate 8)	0	8.7	13.4
MIS12 (MIS12 kinetochore complex component)	0	9.6	4.2
BDP1 (BDP1 general transcription factor IIIB subunit)	0	3.5	3.6
CYSLTR1 (cysteinyl leukotriene receptor 1)	0	3.7	1.3
FAM24B (family with sequence similarity 24 member B)	0	0	-2.3
BOLA1 (bolA family member 1)	0	5.1	1.5
LOC127003	0	22.9	26.4
PEBP1 (phosphatidylethanolamine binding protein 1)	1	11.9	23.9
